Paper PMC4759627
These are yes or no findings as the source states them, for the method shown. Binding seen in cells or lysates may run through a third protein. Some binding calls cover weakened binding; strength is not graded here. For some of these results: Tags and fused reporters may be left off the sequences shown.

Amino acid sequences for entries named in this document (tags omitted).
UniProt Q8TCU6: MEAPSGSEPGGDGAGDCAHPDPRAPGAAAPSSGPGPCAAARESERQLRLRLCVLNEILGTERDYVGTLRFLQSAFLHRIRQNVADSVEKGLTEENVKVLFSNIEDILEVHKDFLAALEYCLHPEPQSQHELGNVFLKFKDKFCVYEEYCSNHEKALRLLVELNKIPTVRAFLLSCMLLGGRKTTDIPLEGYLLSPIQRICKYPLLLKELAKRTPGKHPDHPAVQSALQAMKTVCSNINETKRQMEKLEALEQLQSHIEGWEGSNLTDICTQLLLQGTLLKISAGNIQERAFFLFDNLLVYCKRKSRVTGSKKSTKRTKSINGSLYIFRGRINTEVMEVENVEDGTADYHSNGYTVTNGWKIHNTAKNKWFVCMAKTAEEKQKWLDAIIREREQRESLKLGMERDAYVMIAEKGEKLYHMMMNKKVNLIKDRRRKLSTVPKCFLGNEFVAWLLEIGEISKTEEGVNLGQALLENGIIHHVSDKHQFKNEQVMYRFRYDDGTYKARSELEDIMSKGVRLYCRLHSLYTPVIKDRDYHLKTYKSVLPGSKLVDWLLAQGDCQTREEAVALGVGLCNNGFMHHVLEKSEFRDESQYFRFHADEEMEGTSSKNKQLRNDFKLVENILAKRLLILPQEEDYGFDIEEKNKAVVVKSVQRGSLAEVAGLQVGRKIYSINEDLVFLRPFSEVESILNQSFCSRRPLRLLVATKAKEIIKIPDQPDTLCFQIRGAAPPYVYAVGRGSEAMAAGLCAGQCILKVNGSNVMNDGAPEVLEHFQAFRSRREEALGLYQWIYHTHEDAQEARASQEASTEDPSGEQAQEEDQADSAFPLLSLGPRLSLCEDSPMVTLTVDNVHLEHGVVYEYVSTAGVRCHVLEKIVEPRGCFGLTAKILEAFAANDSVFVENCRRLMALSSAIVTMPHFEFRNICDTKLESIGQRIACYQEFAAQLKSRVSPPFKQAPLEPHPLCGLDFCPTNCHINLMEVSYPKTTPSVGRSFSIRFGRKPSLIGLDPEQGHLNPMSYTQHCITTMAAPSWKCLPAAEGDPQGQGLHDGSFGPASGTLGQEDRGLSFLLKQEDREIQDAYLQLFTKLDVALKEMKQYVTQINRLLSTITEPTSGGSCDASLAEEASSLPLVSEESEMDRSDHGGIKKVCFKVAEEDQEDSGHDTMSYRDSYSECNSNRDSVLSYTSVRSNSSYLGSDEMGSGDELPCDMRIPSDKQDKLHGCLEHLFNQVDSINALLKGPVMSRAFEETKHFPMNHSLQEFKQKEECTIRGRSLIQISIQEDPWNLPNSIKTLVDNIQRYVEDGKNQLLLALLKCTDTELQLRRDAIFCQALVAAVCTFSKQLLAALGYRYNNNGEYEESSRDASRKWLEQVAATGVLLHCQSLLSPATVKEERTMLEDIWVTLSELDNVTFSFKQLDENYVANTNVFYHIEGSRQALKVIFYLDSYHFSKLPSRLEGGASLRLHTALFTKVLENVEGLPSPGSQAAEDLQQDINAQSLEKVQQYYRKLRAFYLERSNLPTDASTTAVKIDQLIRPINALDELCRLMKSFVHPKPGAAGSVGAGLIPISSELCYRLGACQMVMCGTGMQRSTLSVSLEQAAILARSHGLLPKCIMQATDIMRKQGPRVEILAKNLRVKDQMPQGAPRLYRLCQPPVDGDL
UniProt Q60610: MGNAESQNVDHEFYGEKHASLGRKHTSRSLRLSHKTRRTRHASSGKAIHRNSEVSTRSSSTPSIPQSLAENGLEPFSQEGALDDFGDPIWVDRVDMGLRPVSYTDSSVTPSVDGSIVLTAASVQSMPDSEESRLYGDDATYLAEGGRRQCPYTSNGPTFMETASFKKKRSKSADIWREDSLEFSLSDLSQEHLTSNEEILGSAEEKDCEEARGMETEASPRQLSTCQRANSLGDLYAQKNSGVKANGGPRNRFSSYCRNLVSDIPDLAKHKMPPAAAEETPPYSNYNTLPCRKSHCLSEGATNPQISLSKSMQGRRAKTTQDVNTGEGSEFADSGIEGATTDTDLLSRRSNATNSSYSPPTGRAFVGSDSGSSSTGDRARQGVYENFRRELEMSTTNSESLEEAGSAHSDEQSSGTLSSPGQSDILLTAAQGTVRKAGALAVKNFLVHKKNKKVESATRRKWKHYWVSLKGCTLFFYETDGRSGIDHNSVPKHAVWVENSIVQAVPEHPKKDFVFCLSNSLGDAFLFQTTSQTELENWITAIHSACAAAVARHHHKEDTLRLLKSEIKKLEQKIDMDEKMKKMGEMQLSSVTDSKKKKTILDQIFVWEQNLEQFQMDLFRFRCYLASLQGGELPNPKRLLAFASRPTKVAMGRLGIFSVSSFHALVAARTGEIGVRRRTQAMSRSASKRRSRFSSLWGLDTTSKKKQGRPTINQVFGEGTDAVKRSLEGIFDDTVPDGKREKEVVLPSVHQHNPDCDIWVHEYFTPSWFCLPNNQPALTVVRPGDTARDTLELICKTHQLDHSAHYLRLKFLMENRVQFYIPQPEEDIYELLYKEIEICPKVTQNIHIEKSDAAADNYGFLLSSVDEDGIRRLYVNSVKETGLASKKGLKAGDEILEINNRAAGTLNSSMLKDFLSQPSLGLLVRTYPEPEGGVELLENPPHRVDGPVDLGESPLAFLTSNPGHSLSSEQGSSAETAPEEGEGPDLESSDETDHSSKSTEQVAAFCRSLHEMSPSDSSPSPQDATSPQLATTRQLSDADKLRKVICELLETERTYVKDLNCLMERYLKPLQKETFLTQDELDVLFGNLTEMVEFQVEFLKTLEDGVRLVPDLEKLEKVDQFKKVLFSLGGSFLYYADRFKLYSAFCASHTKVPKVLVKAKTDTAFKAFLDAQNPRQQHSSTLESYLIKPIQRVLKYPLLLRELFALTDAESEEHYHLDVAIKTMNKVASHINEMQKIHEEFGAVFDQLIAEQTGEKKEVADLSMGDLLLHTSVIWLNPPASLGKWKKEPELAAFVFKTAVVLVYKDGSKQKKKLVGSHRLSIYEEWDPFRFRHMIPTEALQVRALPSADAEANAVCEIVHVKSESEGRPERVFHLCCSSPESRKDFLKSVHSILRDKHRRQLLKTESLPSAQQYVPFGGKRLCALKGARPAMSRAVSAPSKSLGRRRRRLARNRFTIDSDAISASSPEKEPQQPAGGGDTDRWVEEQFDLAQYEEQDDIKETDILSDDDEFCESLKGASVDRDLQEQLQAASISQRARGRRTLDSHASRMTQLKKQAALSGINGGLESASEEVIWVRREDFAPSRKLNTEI

Experiments:
[1] = target: T1, FLAG-tagged full-length FLII (FLII FL) (UniProt Q13045); assay: co-IP; FLAG immunoprecipitation on anti-FLAG M2 affinity gel from HEK293T lysates co-expressing FLAG-tagged FLII (FL or domain mutants) and a GEF, 75 min at 4 °C, 3xFLAG peptide elution, western blot
T1 sequence: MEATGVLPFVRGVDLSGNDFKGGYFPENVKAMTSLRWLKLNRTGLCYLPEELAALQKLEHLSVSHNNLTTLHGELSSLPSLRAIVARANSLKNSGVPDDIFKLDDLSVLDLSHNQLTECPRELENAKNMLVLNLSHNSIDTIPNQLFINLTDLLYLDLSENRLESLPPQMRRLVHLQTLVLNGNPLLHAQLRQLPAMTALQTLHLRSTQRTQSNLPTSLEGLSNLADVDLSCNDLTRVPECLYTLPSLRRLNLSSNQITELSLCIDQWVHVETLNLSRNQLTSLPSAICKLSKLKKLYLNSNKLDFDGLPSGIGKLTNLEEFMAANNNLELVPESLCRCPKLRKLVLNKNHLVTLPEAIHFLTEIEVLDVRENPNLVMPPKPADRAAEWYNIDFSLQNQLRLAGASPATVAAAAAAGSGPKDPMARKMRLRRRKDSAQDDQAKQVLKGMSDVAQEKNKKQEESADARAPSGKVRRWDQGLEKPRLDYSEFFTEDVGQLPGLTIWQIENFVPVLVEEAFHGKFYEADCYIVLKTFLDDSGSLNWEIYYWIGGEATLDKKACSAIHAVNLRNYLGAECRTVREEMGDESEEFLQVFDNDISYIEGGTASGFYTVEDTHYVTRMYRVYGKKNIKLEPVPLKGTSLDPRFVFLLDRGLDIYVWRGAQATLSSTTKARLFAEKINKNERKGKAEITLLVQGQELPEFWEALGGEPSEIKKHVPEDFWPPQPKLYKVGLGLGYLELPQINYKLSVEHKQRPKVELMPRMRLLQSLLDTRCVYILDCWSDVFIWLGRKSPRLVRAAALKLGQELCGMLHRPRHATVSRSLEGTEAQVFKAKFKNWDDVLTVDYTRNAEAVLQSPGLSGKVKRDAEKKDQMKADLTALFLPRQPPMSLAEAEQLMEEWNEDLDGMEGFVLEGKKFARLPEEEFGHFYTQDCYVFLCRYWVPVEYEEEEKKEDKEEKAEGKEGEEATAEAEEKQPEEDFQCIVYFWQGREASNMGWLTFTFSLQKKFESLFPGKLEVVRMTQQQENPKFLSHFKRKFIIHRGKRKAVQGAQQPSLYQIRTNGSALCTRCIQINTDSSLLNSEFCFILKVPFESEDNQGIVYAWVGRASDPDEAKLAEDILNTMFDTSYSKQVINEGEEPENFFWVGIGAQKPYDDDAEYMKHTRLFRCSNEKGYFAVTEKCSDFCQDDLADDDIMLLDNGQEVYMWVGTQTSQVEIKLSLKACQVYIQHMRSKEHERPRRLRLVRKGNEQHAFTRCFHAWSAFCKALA

[2] = target: T2, FLII, endogenous in CHL1 cells (human (endogenous in CHL1)) (UniProt Q13045); assay: proximity ligation; Duolink in situ PLA with mouse anti-FLII and rabbit anti-P-Rex1 antibodies on fixed CHL1 cells; control with the FLII antibody only
T2 sequence: T1 sequence

[3] = target: T3, FLII, endogenous in MCF7 cells (human (endogenous in MCF7)) (UniProt Q13045); assay: co-IP; immunoprecipitation of endogenous P-Rex1 or of endogenous FLII from MCF7 lysates with antibody pre-bound to GammaBind G Sepharose beads, western blot
T3 sequence: T1 sequence

Substance	binding [1]	other results
Myc-tagged P-Rex1 WT (from UniProt Q8TCU6 1-1659)	binds	–
Myc-tagged Tiam1 WT (from UniProt Q60610 1-1591)	no binding	–
P-Rex1, endogenous in CHL1 cells (from UniProt Q8TCU6 1-1659)	–	binding [2]: binds
P-Rex1, endogenous in MCF7 cells (from UniProt Q8TCU6 1-1659)	–	binding [3]: binds
